Experiments:
Type in all cases: cell-based
[1] = system: KB-C-2; test: SRB-based cytotoxicity assay, single and combination with paclitaxel; conditions: Homo sapiens, KB-C2
Description: (§1) All of the cell lines used were purchased from ATCC and cultured in RPMI-1640 supplemented with 10% fetal bovine serum and antibiotics (100 units penicillin/100 μg/ml streptomycin), unless stated otherwise. 1845B5 and MCF-10A non-cancer breast cell lines were cultured in DME/F12 medium supplemented with 10% fetal bovine serum, antibiotics and growth factors. […] The human small cell lung carcinoma H69 cell line and its multidrug-resistant MRP1-overexpressing isogenic H69AR cell line were purchased from ATCC. […] H69 cells grow as large multi-cell aggregates, making it difficult to accurately count cell numbers. […] The IL-6 dependent bortezomib-resistant ANBL6-BR cell line was further supplemented with 1 ng/ml of IL-6. The MCF10AT1 and MCF10CA1a cell lines are isogenic to the MCF10A cell line, and obtained from Dr. Valerie Weaver at the Center for Bioengineering and Tissue Regeneration, UCSF, CA, USA. […] Cell growth (inhibition) was calculated by the following formula: % cells proliferation=[(AT-CT)/(ST-CT)]×100 wherein AT=absorbance of treated cells, CT=absorbance of negative control cells, and ST=absorbance of sham treated cells. […] The combinational index (CI) was calculated as described previously (Chou 2006). […] CI values were determined from four independent experiments.

[2] = system: SW-1271; test: SRB-based cytotoxicity assay; conditions: SW1271
Description: as §1, with “USA. MCF10AT1 is a premalignant cell line generated by transforming MCF10A with c-Ha-Ras; and MCF10CA1a was isolated by selecting malignant cells after MCF10AT1 cells were engrafted into mice (Liu & Lin 2004; […] et al. 2009). […] The drug-resistant cells were cultured in the absence of drug for at least one passage before carrying out experiments. All cells were maintained in a humidified incubator at 37° C. […] Cell line authentication was performed using short tandem repeat (STR) profiling. For (anti)proliferation assays, 4,000-5,000 cells/well of the 96-well clustered dish were incubated for 16 hours, as described previously (Hu et al., 2008; Skehan et al., 1990).” for “USA.”

[3] = system: H69AR; test: SRB-based cytotoxicity assay; conditions: Homo sapiens
Description: as §1, with “USA. MCF10AT1 is a premalignant cell line generated by transforming MCF10A with c-Ha-Ras; and MCF10CA1a was isolated by selecting malignant cells after MCF10AT1 cells were engrafted into mice (Liu & Lin 2004; […] et al. 2009). […] The drug-resistant cells were cultured in the absence of drug for at least one passage before carrying out experiments. All cells were maintained in a humidified incubator at 37° C. […] Cell line authentication was performed using short tandem repeat (STR) profiling. For (anti)proliferation assays, 4,000-5,000 cells/well of the 96-well clustered dish were incubated for 16 hours, as described previously (Hu et al., 2008; Skehan et al., 1990).” for “USA.”

[4] = system: KB-C-1; test: SRB-based cytotoxicity assay; conditions: Homo sapiens, KBC-1
Description: as §1, with “USA. MCF10AT1 is a premalignant cell line generated by transforming MCF10A with c-Ha-Ras; and MCF10CA1a was isolated by selecting malignant cells after MCF10AT1 cells were engrafted into mice (Liu & Lin 2004; […] et al. 2009). […] The drug-resistant cells were cultured in the absence of drug for at least one passage before carrying out experiments. All cells were maintained in a humidified incubator at 37° C. […] Cell line authentication was performed using short tandem repeat (STR) profiling. For (anti)proliferation assays, 4,000-5,000 cells/well of the 96-well clustered dish were incubated for 16 hours, as described previously (Hu et al., 2008; Skehan et al., 1990).” for “USA.”

## COc1cc2c(c(OC)c1OC)-c1ccc(OC)c(=O)cc1[C@@H](NC(C)=O)CC2 [Colchicine, reference compound]
[1]
  IC50: 83.5 ± 7.22 nM
[2]
  IC50: 4.84 ± 0.8 nM
[3]
  IC50: 23 ± 3.63 nM
[4]
  IC50: 5.36 ± 0.54 nM

— patent US20180344725A1, “QUINOLONE CHALCONE COMPOUNDS AND USES THEREOF” (priority 2015, published 2018)
